No constants are given. Whether binding was seen depends on the method and setting. Binding seen in cells or lysates may run through a third protein. Some results given as binding are weak or reduced against the parent protein; the word gives no strength.
Key:
Myc-tagged p65 (Myc-p65) = Myc-tagged p65 (Myc-p65) (UniProt Q04206); assay: co-IP; HEK293A (HEK293) cells transfected with Myc-p65, HA-ZHX2 and Fg-YAP-5SA and/or TEAD4-GFP, one of them in increasing amounts; extracts precipitated with anti-Myc antibody overnight, Protein A resin; western blot for tags, endogenous TEAD4 or YAP
[1] = target: p65 subunit of NF-κB, endogenous in 786-O cells (human (endogenous in 786-O)) (UniProt Q04206); assay: co-IP; endogenous proteins; 786-O cell extracts, cells grown without or with 2 μM XMU-MP-1 for 6 hours; precipitated with p65 antibody or control IgG overnight at 4°C, Protein A resin; western blot

Protein sequences, listed by entry. Tags and fused reporters are not part of them.
UniProt Q04206: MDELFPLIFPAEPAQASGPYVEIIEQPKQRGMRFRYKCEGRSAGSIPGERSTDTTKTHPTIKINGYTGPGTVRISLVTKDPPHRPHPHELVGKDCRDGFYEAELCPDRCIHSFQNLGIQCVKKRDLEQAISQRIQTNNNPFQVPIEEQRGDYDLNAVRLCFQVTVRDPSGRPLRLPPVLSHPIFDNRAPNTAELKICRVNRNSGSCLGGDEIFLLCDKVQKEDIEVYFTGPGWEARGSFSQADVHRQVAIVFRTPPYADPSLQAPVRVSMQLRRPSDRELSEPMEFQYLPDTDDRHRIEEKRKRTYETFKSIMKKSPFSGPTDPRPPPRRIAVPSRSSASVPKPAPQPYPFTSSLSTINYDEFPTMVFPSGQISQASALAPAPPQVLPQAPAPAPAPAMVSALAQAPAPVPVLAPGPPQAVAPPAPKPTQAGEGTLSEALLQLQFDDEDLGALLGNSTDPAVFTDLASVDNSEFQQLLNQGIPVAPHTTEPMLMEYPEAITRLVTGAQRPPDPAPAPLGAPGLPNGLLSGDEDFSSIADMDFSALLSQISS
UniProt P46937: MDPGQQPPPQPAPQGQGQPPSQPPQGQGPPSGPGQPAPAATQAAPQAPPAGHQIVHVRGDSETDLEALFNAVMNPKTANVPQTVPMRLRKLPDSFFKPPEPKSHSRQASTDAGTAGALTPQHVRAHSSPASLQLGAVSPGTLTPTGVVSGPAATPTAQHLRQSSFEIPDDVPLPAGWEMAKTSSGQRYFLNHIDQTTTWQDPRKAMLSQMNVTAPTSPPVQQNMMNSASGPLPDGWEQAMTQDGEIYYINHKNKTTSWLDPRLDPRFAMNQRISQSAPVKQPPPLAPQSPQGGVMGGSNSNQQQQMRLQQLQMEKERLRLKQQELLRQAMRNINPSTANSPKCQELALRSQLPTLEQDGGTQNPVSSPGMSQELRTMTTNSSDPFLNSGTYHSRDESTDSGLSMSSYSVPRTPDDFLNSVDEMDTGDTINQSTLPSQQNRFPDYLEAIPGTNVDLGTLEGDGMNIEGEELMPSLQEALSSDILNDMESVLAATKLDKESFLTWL

## YAP, endogenous in HEK293 cells (from UniProt P46937 1-504)
Myc-tagged p65 (Myc-p65)
  binding: binds

## Yes1 associated transcriptional regulator (YAP), endogenous in 786-O cells (from UniProt P46937 1-504)
[1]
  binding: binds
